Reference: PMC2999422
Read-outs that look alike come from different tables or passages of the source. No constants are given. Whether binding was seen depends on the method and setting. For some of these results: In cells and extracts the contact can be indirect. Some results given as binding are weak or reduced against the parent protein; the word gives no strength.

Protein sequences, listed by entry. Tags and fused reporters are not part of them.
UniProt O14980: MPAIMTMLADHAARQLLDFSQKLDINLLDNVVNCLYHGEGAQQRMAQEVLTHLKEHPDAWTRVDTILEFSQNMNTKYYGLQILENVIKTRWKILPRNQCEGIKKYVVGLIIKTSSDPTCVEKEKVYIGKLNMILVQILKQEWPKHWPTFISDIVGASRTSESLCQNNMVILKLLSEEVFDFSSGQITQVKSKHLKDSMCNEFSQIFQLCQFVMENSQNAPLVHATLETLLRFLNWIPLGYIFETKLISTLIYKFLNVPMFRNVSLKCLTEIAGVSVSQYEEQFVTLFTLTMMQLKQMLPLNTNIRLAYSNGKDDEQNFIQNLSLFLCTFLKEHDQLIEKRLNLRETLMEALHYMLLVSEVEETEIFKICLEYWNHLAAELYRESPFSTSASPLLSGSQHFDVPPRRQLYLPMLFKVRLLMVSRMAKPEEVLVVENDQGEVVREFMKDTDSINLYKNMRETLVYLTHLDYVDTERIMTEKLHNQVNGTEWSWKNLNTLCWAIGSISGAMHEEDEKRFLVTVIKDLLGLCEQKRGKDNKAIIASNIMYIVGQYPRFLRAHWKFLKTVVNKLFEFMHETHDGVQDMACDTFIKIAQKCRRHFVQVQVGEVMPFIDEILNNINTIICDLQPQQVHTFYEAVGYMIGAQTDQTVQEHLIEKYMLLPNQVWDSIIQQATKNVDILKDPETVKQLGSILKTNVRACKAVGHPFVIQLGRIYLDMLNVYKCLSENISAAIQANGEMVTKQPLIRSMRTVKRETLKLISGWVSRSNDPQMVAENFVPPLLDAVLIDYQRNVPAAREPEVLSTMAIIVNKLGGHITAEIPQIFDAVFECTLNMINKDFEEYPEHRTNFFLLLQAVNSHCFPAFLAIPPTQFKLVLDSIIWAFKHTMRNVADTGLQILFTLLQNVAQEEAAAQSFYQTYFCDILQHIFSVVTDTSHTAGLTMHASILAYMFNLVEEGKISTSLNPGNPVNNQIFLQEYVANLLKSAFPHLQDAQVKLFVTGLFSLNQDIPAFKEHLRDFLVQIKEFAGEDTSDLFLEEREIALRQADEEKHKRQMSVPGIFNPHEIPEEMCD

T1: ecdysteroid receptor (EcR) (UniProt P34021)
T1 sequence: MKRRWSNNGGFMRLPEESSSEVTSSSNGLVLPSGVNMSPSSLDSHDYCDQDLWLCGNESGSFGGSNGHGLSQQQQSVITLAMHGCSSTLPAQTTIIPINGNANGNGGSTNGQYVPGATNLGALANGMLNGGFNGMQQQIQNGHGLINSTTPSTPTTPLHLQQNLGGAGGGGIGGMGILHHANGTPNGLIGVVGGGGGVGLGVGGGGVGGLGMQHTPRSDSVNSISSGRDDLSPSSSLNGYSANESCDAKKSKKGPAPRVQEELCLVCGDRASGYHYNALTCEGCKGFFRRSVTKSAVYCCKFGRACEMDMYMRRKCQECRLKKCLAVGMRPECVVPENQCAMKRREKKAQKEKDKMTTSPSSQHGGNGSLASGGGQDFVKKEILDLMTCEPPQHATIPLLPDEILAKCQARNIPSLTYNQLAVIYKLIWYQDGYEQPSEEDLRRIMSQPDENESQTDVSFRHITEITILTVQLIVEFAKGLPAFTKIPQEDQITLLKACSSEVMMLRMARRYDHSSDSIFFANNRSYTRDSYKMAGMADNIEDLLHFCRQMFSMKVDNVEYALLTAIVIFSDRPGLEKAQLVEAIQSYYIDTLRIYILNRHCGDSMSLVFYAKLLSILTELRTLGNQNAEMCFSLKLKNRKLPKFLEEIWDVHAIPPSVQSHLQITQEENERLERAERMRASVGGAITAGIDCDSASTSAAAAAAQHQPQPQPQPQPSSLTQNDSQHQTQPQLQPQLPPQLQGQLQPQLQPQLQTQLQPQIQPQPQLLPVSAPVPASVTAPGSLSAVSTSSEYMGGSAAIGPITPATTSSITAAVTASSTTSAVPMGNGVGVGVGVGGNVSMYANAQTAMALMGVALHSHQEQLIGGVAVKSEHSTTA

T2: Ultraspiracle (Usp) (UniProt P20153)
T2 sequence: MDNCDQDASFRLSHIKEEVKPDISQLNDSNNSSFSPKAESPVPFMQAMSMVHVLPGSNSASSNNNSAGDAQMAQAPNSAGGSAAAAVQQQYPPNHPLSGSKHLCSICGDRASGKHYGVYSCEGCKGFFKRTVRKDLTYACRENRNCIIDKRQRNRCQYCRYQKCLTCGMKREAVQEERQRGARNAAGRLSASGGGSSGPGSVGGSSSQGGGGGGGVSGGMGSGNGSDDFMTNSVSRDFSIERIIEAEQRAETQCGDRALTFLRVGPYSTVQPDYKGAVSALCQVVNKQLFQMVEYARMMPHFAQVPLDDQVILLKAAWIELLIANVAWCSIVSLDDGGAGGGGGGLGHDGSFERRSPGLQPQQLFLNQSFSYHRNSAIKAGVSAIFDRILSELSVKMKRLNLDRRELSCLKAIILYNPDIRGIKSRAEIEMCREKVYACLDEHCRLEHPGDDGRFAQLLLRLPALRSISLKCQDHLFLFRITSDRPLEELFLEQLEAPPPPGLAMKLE

T3: NHR-25 (C. elegans) (UniProt Q19345)
T3 sequence: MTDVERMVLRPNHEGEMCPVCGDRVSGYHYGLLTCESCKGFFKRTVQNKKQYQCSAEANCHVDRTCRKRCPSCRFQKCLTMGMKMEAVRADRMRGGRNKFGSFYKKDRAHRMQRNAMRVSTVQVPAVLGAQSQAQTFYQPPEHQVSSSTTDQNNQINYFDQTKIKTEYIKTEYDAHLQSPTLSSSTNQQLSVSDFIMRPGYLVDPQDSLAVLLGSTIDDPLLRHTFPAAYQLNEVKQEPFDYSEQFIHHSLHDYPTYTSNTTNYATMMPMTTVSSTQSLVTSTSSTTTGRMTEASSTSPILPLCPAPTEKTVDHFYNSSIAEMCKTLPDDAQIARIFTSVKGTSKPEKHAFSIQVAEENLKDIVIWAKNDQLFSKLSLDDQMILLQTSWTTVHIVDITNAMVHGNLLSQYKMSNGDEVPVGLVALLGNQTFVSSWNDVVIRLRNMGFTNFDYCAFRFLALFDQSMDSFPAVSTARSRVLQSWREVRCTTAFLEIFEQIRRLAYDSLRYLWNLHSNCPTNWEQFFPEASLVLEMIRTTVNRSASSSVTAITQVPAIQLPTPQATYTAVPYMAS

T4: MHR3 (Manduca sexta) (UniProt Q08882)
T4 sequence: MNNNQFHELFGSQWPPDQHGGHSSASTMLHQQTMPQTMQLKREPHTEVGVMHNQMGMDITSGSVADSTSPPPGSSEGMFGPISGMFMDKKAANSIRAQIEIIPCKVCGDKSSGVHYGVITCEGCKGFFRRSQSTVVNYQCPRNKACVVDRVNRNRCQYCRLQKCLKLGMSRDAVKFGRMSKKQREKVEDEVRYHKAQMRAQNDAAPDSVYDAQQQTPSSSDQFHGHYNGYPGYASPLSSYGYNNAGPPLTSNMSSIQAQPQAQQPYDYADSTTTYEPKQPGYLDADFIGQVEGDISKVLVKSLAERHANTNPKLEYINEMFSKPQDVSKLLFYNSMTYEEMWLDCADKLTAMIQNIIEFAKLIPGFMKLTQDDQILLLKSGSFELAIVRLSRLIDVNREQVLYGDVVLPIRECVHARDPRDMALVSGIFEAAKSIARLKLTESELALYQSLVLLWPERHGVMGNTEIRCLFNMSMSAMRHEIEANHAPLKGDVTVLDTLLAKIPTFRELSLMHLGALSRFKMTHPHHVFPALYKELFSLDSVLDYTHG


Experiments:
[1] = biological target: T1, ecdysteroid receptor (EcR); assay: co-IP; co-immunoprecipitation of EcR and Usp with transport proteins in vertebrate cell lines that do not contain endogenous EcR and Usp; EcR and Usp expressed alone or together
Ultraspiracle (Usp) = biological target: T2, Ultraspiracle (Usp); assay: as above
NHR-25 (C. elegans) [2] = biological target: T3, NHR-25 (C. elegans); assay: two-hybrid; yeast two-hybrid; no further details
NHR-25 (C. elegans) [3] = biological target: T3, NHR-25 (C. elegans); assay: co-IP; co-immunoprecipitation, named together with cell transfection techniques; no further details
NHR-25 (C. elegans) [4] = biological target: T3, NHR-25 (C. elegans); assay: pull-down; GST pulldown; which partner carried GST is not told
[5] = biological target: T1, ecdysteroid receptor (EcR); assay: co-IP; co-immunoprecipitation of EcR and Usp with transport proteins in vertebrate cell lines that do not contain endogenous EcR and Usp; EcR and Usp expressed alone or together; remark: listed apart in the source
MHR3 (Manduca sexta) = biological target: T4, MHR3 (Manduca sexta); assay: two-hybrid; BacterioMatch II two-hybrid assay

Row | Molecule | binding (NHR-25 (C. elegans) [2]) | binding (NHR-25 (C. elegans) [3]) | binding (NHR-25 (C. elegans) [4]) | other results
1 | exportin-1 / CRM1 (from UniProt O14980 1-1071) | – | – | – | binding [1]: binds; binding (Ultraspiracle (Usp)): no binding
2 | WRM-1 (protein, UniProt Q10953 1-796) MDVDCAETFSQPCTPLNFNPMTPSTSRVSTPVRPSSTMSARQYSGSPFKAQPQNMEPSNSRVQELREAAVGKRSYTNAWMQGTYAPPQMAGQQQRFSRPPSVIGSTMSHMTNMSEMTAYSYGGLSMLSVNTEMGEFNNFVNQAPYQRALTRVSQVSENQDPTNRQYPMTAPEIIENLESTELINQAAAIRALEPIVKAGGMLQTWGPKGAEPIIRALFQVLIPRPVENENVIRKAFEILHHSILLSNKEIRRIDRMFFRLNAALMDPNGPPVFNVPKPYSIYEIVMTRAIQLDTKFESSAMVLLVHLCCKPHFMKIFFGEDETQQSPAHRRLHKIVIEFAIGNLRRPETKSKNKGLCVSIIKNLSNKNATIKDMSERLGVVSLFHQIMQNEVIHEDLLWSTMQALTVFCGDVKNGTHFVQMGGAQVLCGLLSHGSTRLLHELLKCLRRVSDLPAIQEQDMKESIHCIVQLIGCSDVTIVELATGTLRNIGLHNKMNKAFMVQDGVTSHAIAVLRTSEQFTYQPHANIDLYRKQILSIYENCLSVLNNVTSMAPQDIKESAVSACRMISENADSAYVLLHYFNVGNRKCRKLAVTVMKRVIETVPAFADPFVDLLGTTNEPLPILLLQRAFQSLDEWRKTSVEMMNCDGRSAEQRRELDDRRKDHEDIVKRSVGLLTNLCSQANPRFFHSLKLVLTNGTLNPFQWLTHEMSDGILQEWLAFILSICSRDESLQTFMMYRFLEQAKMTEAFFAELKARRQNSNIQTMLSKIIDLGRHQQRIVSQQHQQHQMQHHRQLM | binds | binds | binds | –
3 | Ultraspiracle (Usp) (receptor, UniProt P20153 1-508) MDNCDQDASFRLSHIKEEVKPDISQLNDSNNSSFSPKAESPVPFMQAMSMVHVLPGSNSASSNNNSAGDAQMAQAPNSAGGSAAAAVQQQYPPNHPLSGSKHLCSICGDRASGKHYGVYSCEGCKGFFKRTVRKDLTYACRENRNCIIDKRQRNRCQYCRYQKCLTCGMKREAVQEERQRGARNAAGRLSASGGGSSGPGSVGGSSSQGGGGGGGVSGGMGSGNGSDDFMTNSVSRDFSIERIIEAEQRAETQCGDRALTFLRVGPYSTVQPDYKGAVSALCQVVNKQLFQMVEYARMMPHFAQVPLDDQVILLKAAWIELLIANVAWCSIVSLDDGGAGGGGGGLGHDGSFERRSPGLQPQQLFLNQSFSYHRNSAIKAGVSAIFDRILSELSVKMKRLNLDRRELSCLKAIILYNPDIRGIKSRAEIEMCREKVYACLDEHCRLEHPGDDGRFAQLLLRLPALRSISLKCQDHLFLFRITSDRPLEELFLEQLEAPPPPGLAMKLE | – | – | – | binding [5]: binds
4 | E75B (receptor, UniProt Q08893-2 1-685) MVRAMSCGAELRERHSVLVSMLEARRESSDSGCSSDDGSDVERDCKCRCDPQGFFRRSIQQKIQYRPCTKNQQCSILRINRNRCQYCRLKKCIAVGMSRDAVRFGRVPKREKARILAAMQQSSTSRAHEQAAAAELDDAPRLLARVVRAHLDTCEFTRDRVAAMRARARDCPTYSQPTLACPLNPAPELQSEKEFSQRFAHVIRGVIDFAGLIPGFQLLTQDDKFTLLKSGLFDALFVRLICMFDAPLNSIICLNGQLMKRDSIQSGANARFLVDSTFKFAERMNSMNLTDAEIGLFCAIVLITPDRPGLRNVELVERMHTRLKACLQTVIAQNRPDRPGFLRELMDTLPDLRTLSTLHTEKLVVFRTEHKELLRQQMWSEEEAVSWVDSGADELARSPIGSVSSSESGEAVGDCGTPLLAATLAGRRRLDSRGSVDEEALGVAHLAHNGLTVTPVRQPPRYRKLDSPTDSGIESGNEKHERIVGTGSGCSSPRSSLEEHNEDRRPPVSADDMPVLKRVLQAPPLYGGTPSLMDEAYRRHKKFRALRRDTGEAEARTVRPTPSPQPQHPHPANPAHPAHSPRPQRASLSSTHSVLAKSLMEGPRMTPEQLKRTDIIQQYMRRGESSAPAEGCPLRAGGLLTCYRGASPAPQPVLALQVDVTDAPLNLSKKSPSPPRTYMPQMLEA | – | – | – | binding (MHR3 (Manduca sexta)): binds
5 | SYS-1 (protein, UniProt Q9XVI2 1-811) MHSTGEPQRGPAGPYHHPMPYHVDQIPTTSHPSWHQAPHPGLPTPPYHPQQHPNYISMQPPPSQQQQMTPQALSTQQQQQVQQQQQRQLYSSPSPSRGPAAPAQNQKFRTEQWINNQAWPYSQSPAPPVAPSVMSYHQGDDRMSMLSVNTTMTNQFPDSQRCYSSNGSTCENVNPEMMQMNITQAAEQAIRLWFNTPDPMQRLHMAKTIRTWIRQDKFAQVDQANMPNCVQQILNIIYDGLKPQPVQLPISYYAQLWYNLLDILRRFTFLPIISPYIHQVVQMFCPRENGPQDFRELICNLISLNWQKDPHMKHCANQVFQIFNCIIMGVKNEKLRTEFAQHLKFEKLVGTLSEYFNPQVHPGMINPAIFIIFRFIISKDTRLKDYFIWNNNPHDQPPPPTGLIIKLNAVMIGSYRLIAGQNPETLPQNPELAHLIQVIIRTFDLLGLLLHDSDAIDGFVRSDGVGAITTVVQYPNNDLIRAGCKLLLQVSDAKALAKTPLENILPFLLRLIEIHPDDEVIYSGTGFLSNVVAHKQHVKDIAIRSNAIFLLHTIISKYPRLDELTDAPKRNRVCEIICNCLRTLNNFLMMWIPTPNGETKTAGPNEKQQVCKFIEIDILKKLMSCLSCEGMDTPGLLELRSTILRSFILLLRTPFVPKDGVLNVIDENRKENLIGHICAAYSWVFRQPNNTRTQSTKQQLVERTISLLLVLMEQCGAEKEVAQYSYSIDCPLNLLNGNQVKPTFIHNVLVVCDKILEHCPTRADIWTIDRPMLEGLTNHRNSDIAKAANSLLSRFPENDLLAGIFSNREYF | binds | binds | binds | –
